# Measurements published in the supplement of paper PMC11006884.
# The chains behind the UniProt entries cited, without tags or fusion partners. Where a name states a change or a piece, a line headed by the entry shows the natural chain unless it says otherwise.
# UniProt P07203, whole entry, looked up: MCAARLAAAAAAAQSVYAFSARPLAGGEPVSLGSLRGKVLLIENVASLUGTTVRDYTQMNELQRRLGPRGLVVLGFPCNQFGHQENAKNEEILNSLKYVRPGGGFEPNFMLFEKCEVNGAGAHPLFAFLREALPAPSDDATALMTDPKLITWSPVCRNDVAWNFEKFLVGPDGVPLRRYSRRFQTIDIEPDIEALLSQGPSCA
# UniProt O95714: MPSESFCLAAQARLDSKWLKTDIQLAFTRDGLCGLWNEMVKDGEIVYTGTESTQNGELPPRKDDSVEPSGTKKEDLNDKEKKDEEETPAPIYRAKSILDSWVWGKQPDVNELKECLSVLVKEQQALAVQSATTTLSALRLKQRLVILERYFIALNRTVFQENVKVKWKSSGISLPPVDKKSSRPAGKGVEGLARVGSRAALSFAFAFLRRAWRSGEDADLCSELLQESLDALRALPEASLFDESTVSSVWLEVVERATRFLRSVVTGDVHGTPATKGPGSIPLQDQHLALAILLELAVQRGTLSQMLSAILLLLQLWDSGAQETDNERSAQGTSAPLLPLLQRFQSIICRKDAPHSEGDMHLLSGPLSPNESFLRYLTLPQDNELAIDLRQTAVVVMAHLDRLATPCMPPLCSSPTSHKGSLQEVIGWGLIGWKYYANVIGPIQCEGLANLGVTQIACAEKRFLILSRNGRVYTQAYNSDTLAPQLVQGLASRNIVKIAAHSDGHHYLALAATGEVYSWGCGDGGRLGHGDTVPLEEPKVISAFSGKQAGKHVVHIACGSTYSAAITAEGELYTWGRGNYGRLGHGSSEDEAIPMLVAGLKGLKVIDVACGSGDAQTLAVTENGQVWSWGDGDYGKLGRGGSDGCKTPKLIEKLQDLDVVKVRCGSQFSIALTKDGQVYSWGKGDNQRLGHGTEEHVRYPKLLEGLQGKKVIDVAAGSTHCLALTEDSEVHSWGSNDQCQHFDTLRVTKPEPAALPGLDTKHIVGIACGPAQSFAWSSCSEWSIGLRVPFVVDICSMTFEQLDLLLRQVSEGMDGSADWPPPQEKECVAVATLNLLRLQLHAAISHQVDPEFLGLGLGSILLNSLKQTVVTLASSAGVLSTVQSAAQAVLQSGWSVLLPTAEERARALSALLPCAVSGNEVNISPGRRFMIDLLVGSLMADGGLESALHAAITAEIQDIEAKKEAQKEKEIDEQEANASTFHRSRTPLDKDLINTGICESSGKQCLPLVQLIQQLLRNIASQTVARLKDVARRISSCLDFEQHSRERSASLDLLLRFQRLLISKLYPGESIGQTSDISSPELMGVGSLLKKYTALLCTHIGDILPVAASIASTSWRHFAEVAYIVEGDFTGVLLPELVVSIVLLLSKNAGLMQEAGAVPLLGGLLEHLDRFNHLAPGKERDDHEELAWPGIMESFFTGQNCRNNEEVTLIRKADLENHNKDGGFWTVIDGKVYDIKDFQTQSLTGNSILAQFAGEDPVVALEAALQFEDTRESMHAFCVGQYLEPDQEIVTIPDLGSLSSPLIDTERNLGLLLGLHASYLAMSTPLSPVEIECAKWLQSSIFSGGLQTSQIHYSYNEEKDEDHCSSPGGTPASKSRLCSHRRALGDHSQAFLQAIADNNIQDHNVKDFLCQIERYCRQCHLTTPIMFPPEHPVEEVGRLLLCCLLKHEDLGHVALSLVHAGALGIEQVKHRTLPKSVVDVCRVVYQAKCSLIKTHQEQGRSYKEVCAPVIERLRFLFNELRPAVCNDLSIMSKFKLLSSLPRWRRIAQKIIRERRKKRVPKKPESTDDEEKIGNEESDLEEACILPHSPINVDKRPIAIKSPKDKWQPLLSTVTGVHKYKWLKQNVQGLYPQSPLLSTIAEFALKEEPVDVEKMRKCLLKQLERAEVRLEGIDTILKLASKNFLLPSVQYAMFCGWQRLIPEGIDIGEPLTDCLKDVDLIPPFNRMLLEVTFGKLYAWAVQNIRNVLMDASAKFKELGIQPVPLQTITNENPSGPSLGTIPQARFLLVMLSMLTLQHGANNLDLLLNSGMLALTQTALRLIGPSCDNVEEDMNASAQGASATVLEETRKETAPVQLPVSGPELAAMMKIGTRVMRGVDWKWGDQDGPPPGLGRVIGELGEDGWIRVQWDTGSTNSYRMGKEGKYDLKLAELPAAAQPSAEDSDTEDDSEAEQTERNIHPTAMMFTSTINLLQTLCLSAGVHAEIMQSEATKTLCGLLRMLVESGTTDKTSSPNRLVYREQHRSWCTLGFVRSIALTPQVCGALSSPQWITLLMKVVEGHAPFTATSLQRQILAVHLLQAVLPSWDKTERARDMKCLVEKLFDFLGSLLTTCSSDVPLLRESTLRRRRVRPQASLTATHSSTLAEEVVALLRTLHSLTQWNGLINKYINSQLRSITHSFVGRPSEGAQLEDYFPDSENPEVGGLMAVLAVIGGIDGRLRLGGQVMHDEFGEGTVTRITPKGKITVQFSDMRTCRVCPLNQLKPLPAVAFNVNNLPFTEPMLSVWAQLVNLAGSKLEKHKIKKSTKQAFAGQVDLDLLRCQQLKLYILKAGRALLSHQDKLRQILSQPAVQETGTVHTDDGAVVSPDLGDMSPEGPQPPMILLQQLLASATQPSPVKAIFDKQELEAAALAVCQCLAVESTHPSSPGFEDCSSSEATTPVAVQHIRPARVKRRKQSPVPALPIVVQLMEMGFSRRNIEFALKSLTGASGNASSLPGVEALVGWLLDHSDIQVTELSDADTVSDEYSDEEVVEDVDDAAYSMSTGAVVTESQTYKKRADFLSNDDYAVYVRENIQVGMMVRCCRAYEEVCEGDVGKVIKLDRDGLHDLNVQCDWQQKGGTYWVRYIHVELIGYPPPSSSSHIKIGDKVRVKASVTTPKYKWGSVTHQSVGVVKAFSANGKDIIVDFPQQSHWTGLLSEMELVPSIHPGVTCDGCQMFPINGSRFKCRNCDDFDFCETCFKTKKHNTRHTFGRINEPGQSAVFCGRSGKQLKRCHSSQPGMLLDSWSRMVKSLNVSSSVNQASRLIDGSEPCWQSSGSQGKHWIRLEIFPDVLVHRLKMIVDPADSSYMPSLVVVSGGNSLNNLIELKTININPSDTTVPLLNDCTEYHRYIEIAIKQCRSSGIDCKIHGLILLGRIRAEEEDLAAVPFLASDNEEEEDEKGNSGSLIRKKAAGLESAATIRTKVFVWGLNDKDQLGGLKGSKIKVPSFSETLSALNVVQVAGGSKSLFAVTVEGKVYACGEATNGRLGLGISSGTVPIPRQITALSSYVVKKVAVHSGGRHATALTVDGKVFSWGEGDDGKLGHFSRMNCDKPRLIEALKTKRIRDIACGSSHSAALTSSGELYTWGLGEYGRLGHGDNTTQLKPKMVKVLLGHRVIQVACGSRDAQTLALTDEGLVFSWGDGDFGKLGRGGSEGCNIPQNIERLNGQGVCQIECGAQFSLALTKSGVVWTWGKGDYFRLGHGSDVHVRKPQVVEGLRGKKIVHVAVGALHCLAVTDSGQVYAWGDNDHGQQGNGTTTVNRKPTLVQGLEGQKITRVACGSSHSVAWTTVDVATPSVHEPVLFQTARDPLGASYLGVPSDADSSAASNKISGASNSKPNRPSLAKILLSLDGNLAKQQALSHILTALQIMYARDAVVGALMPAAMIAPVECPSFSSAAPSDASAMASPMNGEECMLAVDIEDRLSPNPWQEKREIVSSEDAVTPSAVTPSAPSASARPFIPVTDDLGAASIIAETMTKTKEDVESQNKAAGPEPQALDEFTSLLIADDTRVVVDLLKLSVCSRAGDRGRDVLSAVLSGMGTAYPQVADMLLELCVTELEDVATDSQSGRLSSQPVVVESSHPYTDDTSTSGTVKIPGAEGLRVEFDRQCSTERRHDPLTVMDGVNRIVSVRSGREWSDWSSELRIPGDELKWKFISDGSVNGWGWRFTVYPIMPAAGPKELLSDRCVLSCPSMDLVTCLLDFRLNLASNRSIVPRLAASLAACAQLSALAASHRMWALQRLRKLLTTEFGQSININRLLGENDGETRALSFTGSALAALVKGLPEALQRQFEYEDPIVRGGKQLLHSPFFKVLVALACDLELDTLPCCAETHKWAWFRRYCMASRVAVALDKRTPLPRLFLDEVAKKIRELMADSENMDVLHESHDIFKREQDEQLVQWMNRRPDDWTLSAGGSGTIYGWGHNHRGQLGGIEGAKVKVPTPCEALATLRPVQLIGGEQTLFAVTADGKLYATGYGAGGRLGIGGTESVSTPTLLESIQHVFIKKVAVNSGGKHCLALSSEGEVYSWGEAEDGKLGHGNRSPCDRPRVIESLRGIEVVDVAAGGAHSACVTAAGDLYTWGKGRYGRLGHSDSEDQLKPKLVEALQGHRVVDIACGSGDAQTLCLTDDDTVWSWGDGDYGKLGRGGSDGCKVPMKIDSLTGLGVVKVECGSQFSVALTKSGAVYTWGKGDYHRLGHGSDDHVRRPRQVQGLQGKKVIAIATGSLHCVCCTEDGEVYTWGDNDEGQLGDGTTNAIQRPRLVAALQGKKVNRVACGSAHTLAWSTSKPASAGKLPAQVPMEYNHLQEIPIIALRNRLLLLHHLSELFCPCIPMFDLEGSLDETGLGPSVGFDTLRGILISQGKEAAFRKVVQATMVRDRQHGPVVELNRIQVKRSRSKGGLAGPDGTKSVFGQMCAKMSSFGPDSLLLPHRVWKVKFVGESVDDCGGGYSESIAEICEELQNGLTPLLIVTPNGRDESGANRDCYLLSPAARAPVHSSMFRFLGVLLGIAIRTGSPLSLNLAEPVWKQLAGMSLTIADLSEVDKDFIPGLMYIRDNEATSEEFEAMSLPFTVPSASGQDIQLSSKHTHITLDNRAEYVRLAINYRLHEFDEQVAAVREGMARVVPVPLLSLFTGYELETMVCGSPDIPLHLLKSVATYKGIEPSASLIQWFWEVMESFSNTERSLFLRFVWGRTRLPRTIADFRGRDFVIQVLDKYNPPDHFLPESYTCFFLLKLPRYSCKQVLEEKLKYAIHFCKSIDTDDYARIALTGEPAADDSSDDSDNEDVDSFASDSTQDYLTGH
# UniProt O94885: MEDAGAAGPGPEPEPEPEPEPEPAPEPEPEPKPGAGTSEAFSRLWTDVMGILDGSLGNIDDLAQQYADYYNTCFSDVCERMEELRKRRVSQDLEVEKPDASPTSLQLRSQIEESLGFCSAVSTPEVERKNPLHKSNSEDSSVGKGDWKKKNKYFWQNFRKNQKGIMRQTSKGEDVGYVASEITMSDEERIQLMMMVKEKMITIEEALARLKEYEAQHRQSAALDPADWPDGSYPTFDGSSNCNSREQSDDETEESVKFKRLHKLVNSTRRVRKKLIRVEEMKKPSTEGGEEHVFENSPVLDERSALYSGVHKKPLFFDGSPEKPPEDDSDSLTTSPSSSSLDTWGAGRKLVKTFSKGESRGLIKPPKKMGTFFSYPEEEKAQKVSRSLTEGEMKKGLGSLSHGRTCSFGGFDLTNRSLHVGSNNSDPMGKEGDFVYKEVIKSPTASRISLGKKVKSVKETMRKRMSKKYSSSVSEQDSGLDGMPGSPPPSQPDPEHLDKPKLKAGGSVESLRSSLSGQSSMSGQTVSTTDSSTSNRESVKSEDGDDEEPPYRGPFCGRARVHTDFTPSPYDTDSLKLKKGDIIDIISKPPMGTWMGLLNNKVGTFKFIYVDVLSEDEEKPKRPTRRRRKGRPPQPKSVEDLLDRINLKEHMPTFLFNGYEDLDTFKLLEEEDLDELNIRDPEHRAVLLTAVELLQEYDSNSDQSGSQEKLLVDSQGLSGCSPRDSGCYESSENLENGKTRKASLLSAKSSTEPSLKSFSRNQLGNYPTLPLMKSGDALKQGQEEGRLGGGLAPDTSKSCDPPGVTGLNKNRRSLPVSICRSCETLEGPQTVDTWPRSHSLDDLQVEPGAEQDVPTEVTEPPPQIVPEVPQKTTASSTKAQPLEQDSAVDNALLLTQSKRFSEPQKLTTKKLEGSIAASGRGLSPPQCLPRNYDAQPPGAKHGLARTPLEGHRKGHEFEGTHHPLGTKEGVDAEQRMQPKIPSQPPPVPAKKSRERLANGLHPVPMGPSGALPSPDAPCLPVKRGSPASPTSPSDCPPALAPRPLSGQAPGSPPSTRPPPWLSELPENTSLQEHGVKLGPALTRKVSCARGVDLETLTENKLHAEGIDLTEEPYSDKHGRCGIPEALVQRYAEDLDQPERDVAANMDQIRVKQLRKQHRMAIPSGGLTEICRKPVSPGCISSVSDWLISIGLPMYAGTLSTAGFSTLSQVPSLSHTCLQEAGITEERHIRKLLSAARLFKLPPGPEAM
# UniProt O95983: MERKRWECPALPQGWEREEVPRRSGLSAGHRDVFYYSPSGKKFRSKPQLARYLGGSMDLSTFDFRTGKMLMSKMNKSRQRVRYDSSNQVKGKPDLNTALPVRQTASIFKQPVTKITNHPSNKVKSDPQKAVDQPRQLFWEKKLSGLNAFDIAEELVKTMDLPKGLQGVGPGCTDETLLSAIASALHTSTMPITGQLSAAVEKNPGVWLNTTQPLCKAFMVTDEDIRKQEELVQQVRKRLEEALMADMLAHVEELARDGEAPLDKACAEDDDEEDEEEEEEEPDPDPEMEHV
# The list shows a part of the results, in another mix than the full data.
# Compound: COC(=O)C#Cc1ccccc1 [methyl 3-phenylpropiolate]
# Assay: log2 ratio of iodoacetamide-alkyne labeling of the cysteine site, DMSO over compound (competition); higher = stronger covalent engagement of the cysteine by the compound, active = 1 or more
# Conditions: 500 µM; treatment time 1 h; system: HEK293T cell lysate
# Method in brief: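 Electrophile (500 µM) or vehicle was added to HEK293T lysate (2 mg/mL) for 1 h at ambient temperature before iodoacetamide alkyne labelling (1 h) and click coupling to sCIP-TMT reagents. After pooling, overnight trypsin digestion at 37 °C, streptavidin enrichment and acid elution, peptides were measured by Orbitrap Eclipse LC-MS/MS with FAIMS and quantified in FragPipe. Each cysteine's log2 competition ratio compares mean control-channel with mean compound-channel reporter intensity, control over compound. Data came from duplicate channels across three replicates, excluding cysteines quantified in only one replicate.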
row,Target,log2 ratio of iodoacetamide-alkyne labeling
1,UROD C35 (UniProt P06132),inactive: 0.238
2,UniProt P00519_C1100,inactive: 0.9
3,UniProt P07437_C127,inactive: 0.228
4,TP53 C275 (UniProt P04637),inactive: 0.619
5,HEXB C551 (UniProt P07686),inactive: 0.749
6,GPX1 C115 (UniProt P07203),inactive: 0.246
7,HERC2 C2770 (UniProt O95714),inactive: 0.612
8,TTC4 C238 (UniProt O95801),inactive: 0.078
9,EPRS C1497 (UniProt P07814),inactive: 0.295
10,SASH1 C406 (UniProt O94885),active: 1.19
11,KIF4A C1171 (UniProt O95239),inactive: 0.491
12,MBD3 C215 (UniProt O95983),inactive: 0.659
13,PCNT C563 (UniProt O95613),inactive: 0.197
14,UniProt P07437_C201,inactive: 0.243
15,PRPF6 C429 (UniProt O94906),inactive: 0.551

# Exported with bars between the fields: part of the list above
row | Target | log2 ratio of iodoacetamide-alkyne labeling
5 | HEXB C551 (UniProt P07686) | inactive: 0.749
9 | EPRS C1497 (UniProt P07814) | inactive: 0.295
